Data published in paper PMC9338799.
Like-named read-outs stand apart in the source and are kept apart here. These are yes or no findings as the source states them, for the method shown. In cells and extracts the contact can be indirect. Some binding calls cover weakened binding; strength is not graded here. For part of these data: Where a sequence is shown, tags or fusion partners need not be part of it.

Amino acid sequences for entries named in this document (tags omitted). A change or cut given only in a name is not applied to a line headed by its entry. Chains listed by the source or under a name are the forms on record and can include a tag or linker.
UniProt Q39204: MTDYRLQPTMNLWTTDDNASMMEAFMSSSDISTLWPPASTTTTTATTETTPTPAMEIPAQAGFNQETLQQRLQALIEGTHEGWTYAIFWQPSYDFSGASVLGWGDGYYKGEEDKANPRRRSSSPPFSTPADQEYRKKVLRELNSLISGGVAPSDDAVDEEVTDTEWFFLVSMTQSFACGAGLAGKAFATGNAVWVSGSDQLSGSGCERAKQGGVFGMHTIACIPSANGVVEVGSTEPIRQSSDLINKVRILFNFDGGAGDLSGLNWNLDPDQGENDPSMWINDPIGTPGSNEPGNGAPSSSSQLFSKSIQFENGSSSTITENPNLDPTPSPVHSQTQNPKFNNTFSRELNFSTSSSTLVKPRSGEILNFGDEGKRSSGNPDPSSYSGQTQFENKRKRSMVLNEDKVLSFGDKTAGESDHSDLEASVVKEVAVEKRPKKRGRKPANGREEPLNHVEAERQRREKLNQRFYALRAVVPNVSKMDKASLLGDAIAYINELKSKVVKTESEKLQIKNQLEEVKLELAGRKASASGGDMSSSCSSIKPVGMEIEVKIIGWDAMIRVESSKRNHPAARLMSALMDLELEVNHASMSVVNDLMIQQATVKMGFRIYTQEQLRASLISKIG
MYC2^2K/R-GFP (double lysine mutant of MYC2 fused to GFP) (Q39204, form named): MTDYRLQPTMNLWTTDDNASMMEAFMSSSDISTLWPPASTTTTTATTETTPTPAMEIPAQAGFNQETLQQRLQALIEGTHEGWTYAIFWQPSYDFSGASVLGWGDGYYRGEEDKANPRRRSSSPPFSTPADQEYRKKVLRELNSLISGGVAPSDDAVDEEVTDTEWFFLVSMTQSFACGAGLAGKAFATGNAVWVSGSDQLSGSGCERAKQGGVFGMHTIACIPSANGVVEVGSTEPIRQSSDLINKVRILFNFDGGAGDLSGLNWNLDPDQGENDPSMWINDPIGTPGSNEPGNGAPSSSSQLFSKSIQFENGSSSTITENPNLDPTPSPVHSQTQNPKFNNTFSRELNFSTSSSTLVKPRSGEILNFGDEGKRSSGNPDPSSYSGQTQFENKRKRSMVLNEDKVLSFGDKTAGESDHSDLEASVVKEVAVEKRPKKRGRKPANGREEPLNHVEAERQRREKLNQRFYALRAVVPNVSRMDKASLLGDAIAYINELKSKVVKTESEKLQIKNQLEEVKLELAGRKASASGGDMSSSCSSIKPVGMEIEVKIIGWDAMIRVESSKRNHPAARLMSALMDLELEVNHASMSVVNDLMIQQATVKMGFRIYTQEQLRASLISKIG
UniProt Q9FIP9: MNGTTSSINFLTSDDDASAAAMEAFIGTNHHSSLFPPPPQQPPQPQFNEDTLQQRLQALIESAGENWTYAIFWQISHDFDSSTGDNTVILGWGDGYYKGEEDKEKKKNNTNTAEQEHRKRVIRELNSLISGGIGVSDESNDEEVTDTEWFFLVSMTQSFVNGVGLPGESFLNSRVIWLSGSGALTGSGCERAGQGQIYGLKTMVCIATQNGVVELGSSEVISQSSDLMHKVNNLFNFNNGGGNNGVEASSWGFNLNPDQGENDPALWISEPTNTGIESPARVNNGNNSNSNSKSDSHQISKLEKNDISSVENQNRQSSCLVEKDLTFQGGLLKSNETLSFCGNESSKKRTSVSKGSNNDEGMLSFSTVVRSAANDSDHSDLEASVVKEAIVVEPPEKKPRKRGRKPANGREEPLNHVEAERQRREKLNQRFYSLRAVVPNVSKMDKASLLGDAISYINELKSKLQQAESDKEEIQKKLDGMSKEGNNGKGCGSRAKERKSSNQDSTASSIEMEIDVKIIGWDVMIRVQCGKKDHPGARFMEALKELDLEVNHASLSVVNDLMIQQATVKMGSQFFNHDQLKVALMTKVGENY

B1: AtPUB10-HA (Plant U-box 10, E3 ubiquitin ligase) (enzyme, UniProt Q9C9A6 1-628)
chain: MAGGAITPDSLIGLIAEINEIPGNFGLFKKDCSDLARRVGLLTHLIEEIRDSSPPSESDASSSLNSHECDWWSDLVVGLQAAKRLLSSATSFQARESSDGAAKRISFQFQCVTWKLEKALGDLTYDRYDISDEVREQVELARLQLRRAMQRYGSLNSKKFSSGLSEPMEKDASSNRKVIEKLESIPETVHSLSDEKKFESPPPWKSSSVSLAFFLSKDGDDERLEKAVTENSDDSQKSDNLTIPEDFLCPISLELMKDPAIVSTGQTYERSFIQRWIDCGNLSCPKTQQKLENFTLTPNYVLRSLISQWCTKHNIEQPGGYMNGRTKNSDGSFRDLSGDMSAIRALVCKLSSQSIEDRRTAVSEIRSLSKRSTDNRILIAEAGAIPVLVKLLTSDGDTETQENAVTCILNLSIYEHNKELIMLAGAVTSIVLVLRAGSMEARENAAATLFSLSLADENKIIIGASGAIMALVDLLQYGSVRGKKDAATALFNLCIYQGNKGRAVRAGIVKPLVKMLTDSSSERMADEALTILSVLASNQVAKTAILRANAIPPLIDCLQKDQPRNRENAAAILLCLCKRDTEKLISIGRLGAVVPLMELSRDGTERAKRKANSLLELLRKSSRKLGSL

Tests used:
Test in all cases: co-IP; total protein extract of N. benthamiana leaves transiently co-expressing the GFP- and HA-tagged proteins; anti-GFP beads (Chromotek), 30 min on ice; buffer 100 mM Tris-HCl pH 8.0, 0.1% SDS, 0.5% sodium deoxycholate, 1% glycerol, 50 mM sodium metabisulphite, 100 mM DTT; immunoblot with anti-HA and anti-GFP
[1] = target: GFP-tagged MYC2 (wild type) (Arabidopsis thaliana) (UniProt Q39204)
[2] = target: MYC2^2K/R-GFP (double lysine mutant of MYC2 fused to GFP) (Arabidopsis thaliana) (UniProt Q39204)
[3] = target: MYC2^2K/R-GFP (double lysine mutant of MYC2 fused to GFP) (Arabidopsis thaliana) (UniProt Q39204); remark: listed apart in the source

Row | Molecule | binding [1] | binding [2] | binding [3]
1 | MYC3-HA (from UniProt Q9FIP9 1-592) | binds | binds | 
2 | B1 |  |  | binds
